Values from PubChem BioAssay AID1259308 (NCATS, 2017).
Screen: 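Candidate targets for better recombinant protein yield in mammalian cells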 (primary screen). Cell system: human HEK293 embryonic kidney cells stably expressing firefly luciferase (HEK-CMV-Luc2-Hygro). Knock-down reagent: single siRNA against human genes, 0.8 pmol siRNA per well. Duration: 72 h. Measured: 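Reporter luminescence and viable-cell signal on separate replicate plates, given as percent of non-targeting control and median/MAD z-scores, plus per-cell luciferase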. Reading the numbers: total luciferase, z-score: higher = more reporter protein produced. Rule for the call: 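Active when the median/MAD z-score for overall luciferase is greater than 3; a gene was taken forward for validation with new siRNAs if at least two of its three siRNAs passed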. Calls: active = raised luciferase; inactive = no rise.
Shown is an unselected part of about 59,000 reagents. In the full data, about 1,510 (2.6%) were called active. 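Calls use total luciferase alone and ignore viability, so some active siRNAs may act by altering cell number.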 A number with no mark means an inactive call. Reagents against one gene are numbered here. Not all columns of the deposit are shown.

For COPG2 (coat protein complex I subunit gamma 2) #1 the deposit lists total luciferase, z-score -0.89.
After knock-down of COPG2 (coat protein complex I subunit gamma 2) #2 the results were total luciferase, z-score 0.914.
For COPG2 (coat protein complex I subunit gamma 2) #3 the deposit lists total luciferase, z-score 1.57.
After knock-down of ARB2BP (ARB2 family member B, pseudogene) #1, the record shows total luciferase, z-score 0.211.
With knock-down of ARB2BP (ARB2 family member B, pseudogene) #2 the results were total luciferase, z-score 1.34.
For ARB2BP (ARB2 family member B, pseudogene) #3 the deposit lists total luciferase, z-score -0.683.
Against THAP5 (THAP domain containing 5) #1 the deposit lists total luciferase, z-score 0.53.
With knock-down of THAP5 (THAP domain containing 5) #2 the results were total luciferase, z-score 0.185.
Silencing of THAP5 (THAP domain containing 5) #3 came out at: total luciferase, z-score -1.45.
Against FBXO9 (F-box protein 9) #1 the deposit lists total luciferase, z-score 1.07.
After knock-down of FBXO9 (F-box protein 9) #2 the results were total luciferase, z-score -0.995.
Silencing of FBXO9 (F-box protein 9) #3 gave: total luciferase, z-score 0.677.
RTKN2 (rhotekin 2) #1 scored total luciferase, z-score -0.915.
For RTKN2 (rhotekin 2) #2 the deposit lists total luciferase, z-score -0.722.
After knock-down of RTKN2 (rhotekin 2) #3, the screen gave total luciferase, z-score -0.537.
Against H2AC6 (H2A clustered histone 6) #1, the values are total luciferase, z-score -0.534.
After knock-down of H2AC6 (H2A clustered histone 6) #2, the record shows total luciferase, z-score -1.17.
Depletion of H2AC6 (H2A clustered histone 6) #3 resulted in: total luciferase, z-score -1.94.
Depletion of KDM1A (lysine demethylase 1A) #1 gave: total luciferase, z-score -0.0894.
KDM1A (lysine demethylase 1A) #2 showed total luciferase, z-score 1.7.
KDM1A (lysine demethylase 1A) #3 gave total luciferase, z-score -0.319.
For EXOSC10 (exosome component 10) #1, the entry reads total luciferase, z-score 0.0192.
Silencing of EXOSC10 (exosome component 10) #2 gave: total luciferase, z-score 1.11.
For EXOSC10 (exosome component 10) #3 the deposit lists total luciferase, z-score 0.293.
After knock-down of HMOX2 (heme oxygenase 2) #1, the screen gave total luciferase, z-score 0.983.
Against HMOX2 (heme oxygenase 2) #2, the entry reads total luciferase, z-score -0.721.
HMOX2 (heme oxygenase 2) #3 gave total luciferase, z-score 0.493.
For IRGM (immunity related GTPase M) #1 the deposit lists total luciferase, z-score -0.16.
Against IRGM (immunity related GTPase M) #2, the entry reads total luciferase, z-score 2.36.
Silencing of IRGM (immunity related GTPase M) #3 gave: total luciferase, z-score -2.27.
With knock-down of MED15 (mediator complex subunit 15) #1, the record shows total luciferase, z-score -0.934.
After knock-down of MED15 (mediator complex subunit 15) #2 the results were total luciferase, z-score -1.03.
Against MED15 (mediator complex subunit 15) #3 the deposit lists total luciferase, z-score 0.206.

3 entries already listed, arranged by “total luciferase, z-score”, low to high.
HMOX2 (heme oxygenase 2) #2: total luciferase, z-score = -0.721
HMOX2 (heme oxygenase 2) #3: total luciferase, z-score = 0.493
HMOX2 (heme oxygenase 2) #1: total luciferase, z-score = 0.983
